# This is one part of the list. The main result of the screen is listed elsewhere. These columns were measured beside it and carry no call. Compounds called inactive in the main read-out are mostly missing here. Potencies come from curve fits of mixed quality, noted in brackets.
# Assay: qHTS Assay for Lipid Storage Modulators in Drosophila S3 Cells;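 as to cell number change: cells counted by Cell Tracker Red CMTPX staining in the red channel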
# Details: BODIPY lipid droplet fluorescence, 18-24 h; for cell number change: measured here: cell count max response, cells fed with added oleic acid
# In short: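 Laser-scanning cytometry quantifies lipid droplet accumulation (500–530 nm total intensity; droplet/cell object ratio) in oleic acid-fed (400 uM added) Drosophila S3 cells treated with a concentration series. 20 uM Triacsin C defined 100% inhibition.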
# [1] = measured here: lipid fluorescence (Fed channel) AC50, cells fed with added oleic acid
# [2] = measured here: cell number channel AC50, cells fed with added oleic acid
SMILES,cell number change,AC50 [1],AC50 [2]
Cc1ccc(C2(c3ccc(C)cc3)CC2C(=O)NC(C)C)cc1 (configuration not stated),16.2%,,
O=C1CN(C(=O)CSc2nc3ccccc3c(=O)n2Cc2ccc(F)cc2)c2ccccc2N1,1.2%,"20.6 µM [falling, single point]",
O=C(Nc1cnn(Cc2ccc(F)cc2)c1)c1cc(-c2cccs2)on1,-59.8%,"20.6 µM [falling, single point]","20.6 µM [falling, single point]"
COc1ccc(NC(=O)C(=O)NCCCO)cc1Cl,,"29.1 µM [rising, single point]",
C=CCOc1ccc(C(=O)NC2CCCCC2)cc1,34.9%,,"4.11 µM [rising, partial curve]"
C/C(=N\NS(=O)(=O)c1ccccc1)c1cccc(NC(=O)c2cccc(Cl)c2)c1,-18.4%,"29.1 µM [falling, single point]",
O=C(Nc1cccnc1)c1ccc(Cl)c(S(=O)(=O)N2CCCC2)c1,-34.2%,,"1.16 µM [falling, full curve]"
C=CCn1c(O)c(C(CC)=NCc2cccnc2)c(=O)[nH]c1=O,-9.15%,"7.31 µM [rising, partial curve]",
CC(=O)Nc1ccc(S(=O)(=O)NNC2=NS(=O)(=O)c3ccccc32)cc1,-43.7%,"23.1 µM [falling, single point]","18.4 µM [falling, single point]"
Cc1nc2ccc(NC(=O)Cc3c(F)cccc3Cl)cc2s1,19.1%,,
Cc1ccc(NS(=O)(=O)c2ccc(Cl)c(NC(=S)NC(=O)C3CCCCC3)c2)cc1Cl,-68.8%,"5.8 µM [falling, partial curve]","0.366 µM [falling, partial curve, poor fit]"
O=C(Cn1ccc(NC(=O)OCc2ccccc2)nc1=O)NCc1nc2ccccc2[nH]1,-2.71%,"18.4 µM [falling, single point]",
COc1ccc(OCCC(=O)NCC23CC4CC(CC(C4)C2)C3)cc1,94.8%,"0.092 µM [falling, full curve, poor fit]","0.092 µM [falling, full curve, poor fit]"
COc1ccccc1-c1nnc(NC(=O)CCS(=O)(=O)c2ccccc2)o1,16.8%,"29.1 µM [falling, partial curve, poor fit]",
O=C(/C=C/c1ccccc1)N1CCN(S(=O)(=O)c2ccc(F)cc2)CC1,20.8%,"0.164 µM [rising, full curve]","0.13 µM [rising, full curve, poor fit]"

# Already shown: 2 of the compounds above.
SMILES,cell number change,AC50 [1],AC50 [2]
C/C(=N\NS(=O)(=O)c1ccccc1)c1cccc(NC(=O)c2cccc(Cl)c2)c1,-18.4%,"29.1 µM [falling, single point]",
O=C(Nc1cccnc1)c1ccc(Cl)c(S(=O)(=O)N2CCCC2)c1,-34.2%,,"1.16 µM [falling, full curve]"

# Source: PubChem BioAssay AID2685 (National Center for Advancing Translational Sciences (NCATS), 2010)
